## Cleaved PARP in drug-treated melanoma cells

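The test systems are human melanoma cell lines, treated with a pair of drugs for 72 h and then stained and imaged. Each value is the cleaved-PARP-positive fraction of nuclei relative to DMSO-treated wells, in %, so that 100 equals the control and higher values mean more apoptosis. Concentrations were fixed for each drug; these are the higher of two levels. These are primary screening values without error estimates. Basal and induced levels differ widely between cell lines.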 An unselected part of the screen is shown. An entry leaves out what has no value listed here. A dash means that no value is listed here.

Drug key:
TCS401: O=C(O)C(=O)Nc1sc2c(c1C(=O)O)CCNC2 at 8330 nM
lenalidomide: Nc1cccc2c1CN(C1CCC(=O)NC1=O)C2=O (centres unmarked) at 5000 nM
bexarotene: C=C(c1ccc(C(=O)O)cc1)c1cc2c(cc1C)C(C)(C)CCC2(C)C at 10000 nM
PLX4720: CCCS(=O)(=O)Nc1ccc(F)c(C(=O)c2c[nH]c3ncc(Cl)cc23)c1F at 400 nM

Cell line | PLX4720 + TCS401 | PLX4720 + bexarotene | lenalidomide + PLX4720 | lenalidomide + bexarotene | bexarotene + TCS401
MeWo | 17.4 | 86.5 | 42.8 | 130 | 60.3
IST-MEL1 | 70.4 | 91.3 | 106 | 74.4 | 77.4
UACC-257 | 74.3 | 61.1 | 112 | 135 | 49.2
WM1716 | 71.6 | 188 | 171 | 145 | 79.9
SK-MEL-30 | 97.6 | 114 | 48.3 | 362 | 60.7
LB2518-MEL | 102 | 78.6 | 24.8 | 191 | 23.7
LOX IMVI | 194 | 60.3 | 309 | 114 | 80.8
WM3526 | 318 | 758 | 112 | 137 | 72.3
RVH-421 | 92.2 | 159 | 280 | 49.5 | 109
A101D | 85.8 | 99.9 | 80.7 | 42.5 | 35.2
MEL-HO | 115 | 121 | 443 | 34.6 | 90.1
WM1745 | - | 101 | 104 | 112 | -
WM3619 | 112 | 118 | 90.7 | 106 | 112
COLO 800 | 203 | 68.0 | 45.3 | 155 | 81.3
MZ2-MEL | 122 | 992 | 78.5 | 1320 | 168
C32 | 93.5 | 571 | 45.1 | 133 | 81.6
COLO 829 | 67.2 | 170 | 82.0 | 222 | 135
A375 | 148 | 206 | 128 | 79.7 | 34.3
COLO 792 | 31.2 | 220 | 40.4 | 112 | 64.5
A2058 | 88.5 | 114 | 102 | 108 | 89.9
SK-MEL-2 | 119 | 192 | 66.9 | 120 | 64.2
IPC-298 | 53.2 | 133 | 55.9 | 65.4 | 47.1
RPMI-7951 | 197 | 132 | 122 | 196 | 92.6
WM115 | 33.8 | 322 | 224 | 107 | 88.0
WM451Lu | 990 | 136 | 75.5 | 42.2 | 48.1
SK-MEL-5 | 274 | 301 | 67.4 | 155 | 126
UACC-62 | 369 | 411 | 212 | 308 | 175
SK-MEL-28 | 86.6 | 149 | 47.3 | 104 | 64.4
G-361 | 372 | 264 | 263 | 153 | 50.7
501mel | 76.7 | - | - | - | 230

Once more, the final 3:

* SK-MEL-28 : PLX4720 + TCS401: 86.6; PLX4720 + bexarotene: 149; lenalidomide + PLX4720: 47.3; lenalidomide + bexarotene: 104; bexarotene + TCS401: 64.4
* G-361 : PLX4720 + TCS401: 372; PLX4720 + bexarotene: 264; lenalidomide + PLX4720: 263; lenalidomide + bexarotene: 153; bexarotene + TCS401: 50.7
* 501mel : PLX4720 + TCS401: 76.7; bexarotene + TCS401: 230

From a melanoma drug combination screen (doi:10.1371/journal.pone.0140310); values rounded.